Binding screen against folded nucleic acids

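The test is a small-molecule microarray: each compound is printed twice on a reactive slide, and binding shows as fluorescence of the labelled oligonucleotide after washing. For the PreQ1, TPP and SAM-II riboswitches the laboratory earlier reported (doi:10.1038/s41467-019-09493-3) 1 µM RNA, 2 h, and a rule that included a mean Z-score above 3 (spot signal-to-noise against the whole library), a score well above that on a control array, and duplicate spots agreeing (coefficient of variation under 100). The data file gives only the calls; its cut-offs may differ, and compounds hitting several targets are kept. The calls come from the array alone, and fixing a compound to the slide can hide its binding.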 A compound is marked hit if it was called a hit and no hit if it was screened but was not. Compounds were drawn at random from those tested, without regard to their results. A target missing from an entry has no call listed here.

Targets, with sequences 5′ to 3′:
SAM-II: SAM-II riboswitch RNA pseudoknot, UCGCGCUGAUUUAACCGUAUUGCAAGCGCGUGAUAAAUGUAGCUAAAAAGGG. About 200 hits among about 21,000 compounds.
PreQ1: PreQ1 riboswitch RNA pseudoknot, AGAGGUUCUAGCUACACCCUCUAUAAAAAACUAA. From B. subtilis. About 170 hits among about 24,000 compounds.
TPP: TPP riboswitch RNA three-way junction, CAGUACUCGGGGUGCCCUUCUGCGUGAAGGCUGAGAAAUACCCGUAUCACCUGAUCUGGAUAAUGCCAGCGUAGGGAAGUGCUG. About 160 hits among about 24,000 compounds.

For N#CCCn1cc(CO)c(-c2ccc(F)cc2)n1 the calls were SAM-II: no hit; PreQ1: no hit; TPP: no hit. Calls for C[C@@H]1C[C@H]2[C@@H]3CCC4=CC(=O)C=C[C@]4(C)[C@@]3(F)[C@@H](O)C[C@]2(C)[C@@]1(O)C(=O)CO are SAM-II: no hit; PreQ1: no hit; TPP: no hit. Cc1n[nH]c(C)c1CCC(=O)N1CC[C@H](N2CCN(C)CC2)[C@H](CCCO)C1 was scored SAM-II: no hit; PreQ1: no hit; TPP: no hit. Calls for CC(=O)c1cccc(Nc2nc3ccccc3nc2NS(=O)(=O)c2ccc(Cl)cc2)c1 are SAM-II: no hit; PreQ1: no hit; TPP: no hit.

With CCOC(=O)N1CCN(c2c(NCCCN3CCN(C4CCCCC4)CC3)c(=O)c2=O)CC1 the screen gave PreQ1: no hit; TPP: no hit. Calls for CC(C)Cc1nnc(N)s1 are SAM-II: no hit; PreQ1: no hit; TPP: no hit. With O=C(c1ccon1)N1CC[C@@H]2[C@@H](CCC(=O)N2CC2CCNCC2)C1 the screen gave SAM-II: no hit; PreQ1: no hit; TPP: no hit. Calls for O=c1[nH]c2cc(F)ccc2cc1CNCc1nc(-c2ccco2)no1 are SAM-II: no hit; PreQ1: no hit; TPP: no hit.

With CCc1c(C)nc2nc(C)nn2c1Nc1ccc(C(=O)O)cc1 the screen gave SAM-II: no hit; PreQ1: no hit; TPP: no hit. With COc1ccccc1C(CCNCc1ccccc1)C1CCOC(C)(C)C1 (stereo not shown) the screen gave SAM-II: no hit; PreQ1: no hit; TPP: no hit. Cc1nc(Cc2c(F)cccc2F)n(CCO)n1 was scored SAM-II: no hit; PreQ1: no hit; TPP: no hit. With COCC1(CO)C(=O)C2CCN1CC2 (stereo not shown) the screen gave SAM-II: no hit; PreQ1: no hit; TPP: no hit.

Calls for CN1CCN(C(=O)c2ccc3c(c2NCCO)C(=O)c2ccccc2C3=O)CC1 are SAM-II: no hit; PreQ1: no hit; TPP: no hit. For CC(C)Cc1cc(CNc2nc(N)nc3c2CCNC3)no1 the calls were SAM-II: no hit; PreQ1: no hit; TPP: no hit. For CC(C)C[C@H](NC(=O)[C@@H](O)[C@H](N)Cc1ccccc1)C(=O)O the calls were SAM-II: no hit; PreQ1: no hit; TPP: no hit. With Nc1ccc(C(=O)CC2(O)C(=O)Nc3ccc(Cl)cc32)cc1 (stereo not shown) the screen gave SAM-II: no hit; PreQ1: no hit; TPP: no hit.

Calls for Cc1cccc(C)c1NC(=O)Nc1ccc(S(N)(=O)=O)cc1 are SAM-II: no hit; PreQ1: no hit; TPP: no hit. Calls for CN(c1cccnc1)c1ncnc2[nH]ncc12 are SAM-II: no hit; PreQ1: no hit; TPP: no hit. Calls for Cc1cc(Nc2ccc(F)cc2)n2nc(-c3ccccc3)nc2n1 are PreQ1: no hit; TPP: no hit. For CN1CCC(Cc2nc(-c3n[nH]c(N)c3Cl)n(CC(F)(F)F)n2)CC1 the calls were SAM-II: no hit; PreQ1: no hit; TPP: no hit.

For Oc1ccccc1-c1nc2cnccn2c1Nc1ccccc1 the calls were SAM-II: no hit; PreQ1: no hit; TPP: no hit. With c1cc2c(cc1Nc1nc(N3CCOCC3)nc(N3CCOCC3)n1)OCO2 the screen gave SAM-II: no hit; PreQ1: no hit; TPP: no hit. Calls for CCN(Cc1cccc(OC)c1)C(=O)c1nc(N)n[nH]1 are SAM-II: no hit; PreQ1: no hit; TPP: no hit. Calls for Cc1ccc2nc(Nc3ccc(C(=O)O)cc3)c3nncn3c2c1 are PreQ1: no hit; TPP: no hit.

For O=C(NC(CO)c1ccc(F)cc1)c1cc(=O)c2cccc(F)c2[nH]1 (stereo not shown) the calls were SAM-II: no hit; PreQ1: no hit; TPP: no hit. O=C(Nc1cccc(Cl)c1)Nc1ncc(CCNc2ncnc3ccsc23)s1 was scored SAM-II: no hit; PreQ1: no hit; TPP: no hit. FC(F)(F)c1cccc(OCCCCNCCN2CCOCC2)c1.O=C(O)C(=O)O was scored SAM-II: no hit; PreQ1: no hit; TPP: no hit. CCN(C(=O)Cn1nc(C)c2ccccc2c1=O)[C@H]1COC[C@@H]1O was scored SAM-II: no hit; PreQ1: no hit; TPP: no hit.

CCN(CC)C(=O)[C@@H]1C[C@H](N)CN1Cc1ccc(Cl)nc1 was scored SAM-II: no hit; PreQ1: no hit; TPP: no hit. For CCc1ccccc1-c1cccc(N2CCNCC2)n1 the calls were SAM-II: no hit; PreQ1: no hit; TPP: no hit. Calls for Cc1cc(N2CCN(S(=O)(=O)c3ccccc3Cl)CC2)nc(NC2CCCCC2)n1 are PreQ1: no hit; TPP: no hit. Calls for CN(Cc1ccc(C(=O)Nc2cnn(C)c2)cc1)Cc1cnc(N)nc1 are SAM-II: no hit; PreQ1: no hit; TPP: no hit.

CCCc1cc(NCCCn2ccnc2)n2nc3nc(C)cc(C)c3c2n1 was scored PreQ1: no hit; TPP: no hit. With C=CCn1c(SCC(=O)NCCCO)nc2sc3c(c2c1=O)CCCC3 the screen gave SAM-II: no hit; PreQ1: no hit; TPP: no hit. Nc1nc(CNC(=O)c2coc(COc3ccc4c(c3)OCO4)n2)cs1 was scored SAM-II: no hit; PreQ1: no hit; TPP: no hit. Calls for CCN(CC)CCNc1c2c(c(C#N)c3nc4ccccc4n13)CCC2 are SAM-II: no hit; PreQ1: no hit; TPP: no hit.

CC(=O)Nc1c(N)c2ccccc2oc1=O was scored SAM-II: no hit; PreQ1: no hit; TPP: no hit. For CC(C)(CO)N(Cc1ccccn1)C(=O)c1cc2ccccc2s1 the calls were SAM-II: no hit; PreQ1: no hit; TPP: no hit. With CC(=O)c1ccc(Nc2nc(-c3ccccc3)c3cc(Cl)ccc3n2)cc1 the screen gave SAM-II: no hit; PreQ1: no hit; TPP: no hit.

The last 3 entries again:

compound,SAM-II,PreQ1,TPP
CC(=O)Nc1c(N)c2ccccc2oc1=O,no hit,no hit,no hit
CC(C)(CO)N(Cc1ccccn1)C(=O)c1cc2ccccc2s1,no hit,no hit,no hit
CC(=O)c1ccc(Nc2nc(-c3ccccc3)c3cc(Cl)ccc3n2)cc1,no hit,no hit,no hit

From ROBIN, a set of small-molecule microarray screens (doi:10.1002/anie.202211358).